The values below come from the supplement of paper PMC10398353.

Several values for one entry are separate records, joined by “and”; a condition that tells them apart may be missing. Identical values can stand only once. Counter-ions that a name gives are not always drawn. ± gives the standard deviation of the averaged measurements. Some of the results follow. The data scatter; read single values as rough.

This assay deals with Salmonella enterica serovar Typhimurium ST313 D23580. Nature of the assay: normalized bacterial growth (OD600 20 h minus 0 h, interquartile-mean normalized) (fraction of plate interquartile mean); higher = more bacterial growth (less inhibition). The note with it: LPM (pH 5.8, low phosphate, low Mg2+), concentration: 10 µM, temperature: 37 °C.
In turn, `O=C1CN(/N=C/c2ccc(-c3ccc([N+](=O)[O-])cc3)o2)C(=O)N1` [Dantrolene sodium] displayed a normalized bacterial growth of 0.847.
Turning to `O=C1CN(/N=C/c2ccc(-c3ccc([N+](=O)[O-])cc3)o2)C(=O)N1`, the normalized bacterial growth was 1.04.
As for `O=C1CN(/N=C/c2ccc(-c3ccc([N+](=O)[O-])cc3)o2)C(=O)N1` [Dantrolene sodium salt], the figure is 0.984.
As for `COc1cc(O)c2c(c1)C(=O)c1cc(C)cc(O)c1C2=O`, the normalized bacterial growth turned out to be 0.97.
Molecule `CC(C)[C@H]1c2ccc(F)cc2CC[C@@]1(CCN(C)CCCc1nc2ccccc2[nH]1)OC(=O)C1CC1` displayed a normalized bacterial growth of 1.46.
Next, `CCOC(=O)n1ccn(C)c1=S`: 0.987; `C[C@H](N)[C@H](O)c1cccc(O)c1` [Metaraminol bitartrate]: 1.02.
Next, `C[C@H](N)[C@H](O)c1cccc(O)c1`: 1.27; `COc1cc2c3cc1Oc1c(OC)c(OC)cc4c1[C@@H](Cc1ccc(OC(=O)c5ccc([N+](=O)[O-])cc5)c(c1)Oc1ccc(cc1)C[C@@H]3N(C)CC2)N(C)CC4`: 0.889; `OC1c2ccccc2N=C2CCCN21` (stereo not given): 1.01.
`CCN(CC)CCOC(=O)C(Cc1cccc2ccccc12)CC1CCCO1` (stereo not given) registered a normalized bacterial growth of 0.918.
Next, `CC1(C)S[C@@H]2[C@H](NC(=O)C(C(=O)O)c3ccccc3)C(=O)N2[C@H]1C(=O)O` (stereo not given in full): 1.09; `Cc1nc2sccn2c(=O)c1CCN1CCC(=C(c2ccccc2)c2ccc(F)cc2)CC1` [Diacylglycerol kinase inhibitor I]: 0.796; `CC(C)=CCC/C(C)=C/CC/C(C)=C/CO`: 0.655.
As for `COc1c(-c2ccccc2)oc2c(ccc3occc32)c1=O`, the figure is 0.863; as for `Cc1c(C(=O)O)c(O)cc2c1C(=O)c1c(O)c([C@@H]3O[C@H](CO)[C@@H](O)[C@H](O)[C@H]3O)c(O)c(O)c1C2=O`, 1.05 ± 0.06; as for `Cc1ccccc1OCC(O)CO` (stereo not given), 1.22.
Next, `CC1=C(CC(=O)O)c2cc(F)ccc2/C1=C\c1ccc(S(C)(=O)=O)cc1` [Sulindac sulfone]: 1.22.
The molecule `NC(N)=NC(=O)c1nc(Cl)c(N2CCCCCC2)nc1N` ["5-(N,N-hexamethylene)amiloride"] gave a normalized bacterial growth of 0.743.
Next, `c1ccc2c(c1)CN1CCCC1=N2`: 1.33 and 0.475; `O=C1CN(/N=C/c2ccc([N+](=O)[O-])o2)C(=O)N1`: 1.07.
Molecule `O=C1O/C(=C/Br)CCC1c1cccc2ccccc12` (stereo not given) [Bromoenol lactone] came in with a normalized bacterial growth of 0.733.
Next, `Nc1nc(N)c2nc(CNc3ccc(C(=O)N[C@@H](CCC(=O)O)C(=O)O)cc3)cnc2n1` [Aminopterin]: 1.15; `CC(C(=O)O)c1cccc(C(=O)c2ccccc2)c1` (stereo not given) [Ketoprofen]: 1.06; `CC[C@H](NC(=O)c1c(C)c(-c2ccccc2)nc2ccccc12)c1ccccc1`: 0.829.
The molecule `N/C(=N\C(=O)c1nc(Cl)c(N)nc1N)NCc1ccc(Cl)c(Cl)c1` ["3',4'-Dichlorobenzamil"] registered a normalized bacterial growth of 0.873.
As for `NCC(O)(CS(=O)(=O)O)c1ccc(Cl)cc1` (stereo not given) [2-Hydroxysaclofen], the figure is 1.04; as for `O=NN(CCCl)C(=O)NCCCl` [Carmustine], 1.21.
Next, `CCOC(=O)c1ncn2c1CN(C)C(=O)c1cc(F)ccc1-2` [Flumazenil]: 0.944; `CCCC1O[C@@H]2C[C@H]3[C@@H]4CCC5=CC(=O)C=C[C@]5(C)[C@H]4[C@@H](O)C[C@]3(C)[C@]2(C(=O)CO)O1` (stereo not given in full): 1.24.
Molecule `CCCC1O[C@@H]2C[C@H]3[C@@H]4CCC5=CC(=O)C=C[C@]5(C)[C@H]4[C@@H](O)C[C@]3(C)[C@]2(C(=O)CO)O1` (stereo not given in full) [Budesonide] returned a normalized bacterial growth of 0.925.
In turn, `NCCC1CCCC(CCN)N1` (stereo not given) ["MDL 26,630 trihydrochloride"] displayed a normalized bacterial growth of 0.903.
The molecule `CCCCCCCCCCCCCCCCCCOCC(COP(=O)([O-])OCC[N+](C)(C)C)OC` (stereo not given) displayed a normalized bacterial growth of 1.32.
As for `CN1[C@@H]2CC[C@H]1CC(OC(=O)c1c[nH]c3ccccc13)C2` (stereo not given in full) [3-Tropanyl-indole-3-carboxylate hydrochloride], the figure is 1.07; as for `COc1cc(C(O)CO)ccc1OS(=O)(=O)O` (stereo not given) [MHPG sulfate potassium], 1.08; as for `CC(C)c1c(O)ccc2c1CC[C@H]1C(C)(C)CCC[C@]21C`, 1.08.
The molecule `COC(=O)c1c(C)[nH]c(C)c1C(=O)c1ccccc1Cc1ccccc1` gave a normalized bacterial growth of 1.05.
`NCCSSCCN` [Cystamine dihydrochloride] had a normalized bacterial growth of 1.12.
As for `Nc1nc2c(ncn2COCCO)c(=O)[nH]1` [Acyclovir], the figure is 1; as for `CC1(C)C(=O)[C@H]2C[C@]3(O)C4=CC(=O)O[C@@H](c5ccoc5)[C@@]4(C)CCC3[C@](C)(C2=O)[C@H]1CC(=O)O` (stereo not given in full), 0.872; as for `CCCCCN(CCCCC)C(=O)C(CCC(=O)O)NC(=O)c1ccc(Cl)c(Cl)c1` (stereo not given) [Lorglumide sodium], 0.696.
As for `O=c1cc(-c2ccccc2O)oc2cc(O)ccc12`, the figure is 1.05.
`CC(C)NCC(O)c1ccc(O)c(O)c1` (stereo not drawn) [S(+)-Isoproterenol (+)-bitartrate]: the normalized bacterial growth is 1.01.
Next, `CC(C)NCC(O)c1ccc(O)c(O)c1` (stereo not given) [()-Isoproterenol hydrochloride]: 1.18; `C#CCCCCCCCCCCCC(O)CC(O)COC(C)=O` (stereo not given): 0.512; `CC1(C)C(=O)C=CC2(C)C1C=CC1(C)C2CCC2(C)C(c3ccoc3)OC(=O)C3OC312` (stereo not given): 0.798.
Next, `CC(=O)OCC(=O)[C@@]1(O)[C@H](C)C[C@H]2[C@@H]3CCC4=CC(=O)C=C[C@]4(C)[C@@]3(F)[C@@H](O)C[C@@]21C` [Dexamethasone acetate]: 1.1; `CC(=O)OCC(=O)[C@@]1(O)[C@H](C)C[C@H]2[C@@H]3CCC4=CC(=O)C=C[C@]4(C)[C@@]3(F)[C@@H](O)C[C@@]21C`: 0.999; `COc1c(N2C[C@@H]3CCCN[C@@H]3C2)c(F)cc2c(=O)c(C(=O)O)cn(C3CC3)c12`: 0.092.
As for `COc1ccc(C(=O)c2ccccc2)c(O)c1`, the figure is 0.796; as for `COc1ccc(C(=O)CC(=O)c2ccc(C(C)(C)C)cc2)cc1`, 1.06.
Molecule `Cc1nc(N=Nc2cc([N+](=O)[O-])ccc2Cl)c(COP(=O)(O)O)c(C=O)c1O` [MRS 2211 sodium salt hydrate] gave a normalized bacterial growth of 0.771.
Next, `CC1(C)CC23C(=O)CCC(O)C2(C)CCC13` (stereo not given): 0.941; `CCC(C(N)=O)c1ccccc1` (stereo not given): 0.903.
As to `COc1cc2c(cc1OC)C1(O)C(=O)c3ccc(O)c(C(=O)O)c3OC1CO2` (stereo not given), the normalized bacterial growth was found to be 0.988.
